# Results from patent US20260055182A1.
# Protein sequences, listed by entry. Tags and fused reporters are not part of them. Residues count along the entry.
# UniProt P32004, residues 20-1120: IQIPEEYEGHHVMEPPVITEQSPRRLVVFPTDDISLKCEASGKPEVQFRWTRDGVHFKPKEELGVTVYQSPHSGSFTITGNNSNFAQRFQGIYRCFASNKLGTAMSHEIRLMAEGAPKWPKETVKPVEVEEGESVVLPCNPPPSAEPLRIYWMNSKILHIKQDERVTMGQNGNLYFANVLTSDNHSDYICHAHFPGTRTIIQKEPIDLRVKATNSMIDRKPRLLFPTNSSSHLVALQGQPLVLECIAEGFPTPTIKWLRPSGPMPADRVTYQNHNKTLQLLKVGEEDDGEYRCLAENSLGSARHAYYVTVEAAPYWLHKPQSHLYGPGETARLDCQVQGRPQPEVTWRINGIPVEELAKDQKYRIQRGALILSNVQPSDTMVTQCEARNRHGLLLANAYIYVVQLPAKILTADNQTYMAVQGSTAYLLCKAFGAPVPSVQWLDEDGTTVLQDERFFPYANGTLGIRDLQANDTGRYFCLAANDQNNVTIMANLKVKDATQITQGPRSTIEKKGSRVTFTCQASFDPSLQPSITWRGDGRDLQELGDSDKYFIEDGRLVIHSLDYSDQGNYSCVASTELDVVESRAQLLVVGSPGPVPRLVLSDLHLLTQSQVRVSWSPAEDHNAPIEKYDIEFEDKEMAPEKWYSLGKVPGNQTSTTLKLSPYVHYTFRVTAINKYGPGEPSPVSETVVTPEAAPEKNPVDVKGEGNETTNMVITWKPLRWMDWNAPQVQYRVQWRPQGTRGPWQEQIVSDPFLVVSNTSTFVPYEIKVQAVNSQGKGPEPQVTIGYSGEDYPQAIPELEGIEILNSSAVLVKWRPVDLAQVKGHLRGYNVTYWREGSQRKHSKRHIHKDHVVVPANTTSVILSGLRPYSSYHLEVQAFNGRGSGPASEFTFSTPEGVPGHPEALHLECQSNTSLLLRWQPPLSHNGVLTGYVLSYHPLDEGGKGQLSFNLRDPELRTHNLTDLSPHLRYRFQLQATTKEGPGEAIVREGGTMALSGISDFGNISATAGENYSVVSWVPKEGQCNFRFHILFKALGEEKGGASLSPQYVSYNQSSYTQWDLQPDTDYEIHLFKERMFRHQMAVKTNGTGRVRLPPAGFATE
# No constants are given. Whether binding was seen depends on the method and setting. Some binding calls cover weakened binding; strength is not graded here.
# Molecular target: L1-CAM recombinant protein (His Tag), human (human) (UniProt P32004)
# Test: SPR (Biacore 8K), L1-CAM immobilised on CM5 chip, antibody as analyte, blank-subtracted
row,Binder,binding
1,"CE7-variant26 (antibody, V domains shown) VH: QVQLVQSGAEVKKPGASVKVSCKASGYTFTGYWMHWVRQAPGQGLEWMGEINPSNGRTNYNEKFQGRVTLTVDKSISTAYMELSRLRSDDTAVYYCARDYYGTSYNFDYWGQGTLVTVSS VL: DIQMTQSPSSLSASVGDRVTITCRANEDINNRLAWYQQKPGKAPKLLISGATNLVTGVPSRFSGSGSGKDYTLTISSLQPEDFATYYCQQYWSTPFTFGQGTKLEIKR",binds
2,"CE7-variant28 (antibody, V domains shown) VH: QVQLVQSGAEVKKPGASVKVSCKASGYTFTGYWMHWVRQAPGQGLEWMGEINPSNGRTNYNEKFQGRVTLTVDKSISTAYMELSRLRSDDTAVYYCARDYYGTSYNFDYWGQGTLVTVSS VL: DIQMTQSPSSLSASVGDRVTITCRASQGINNRLAWYQQKPGKAPKLLISGASNLVSGVPSRFSGSGSGKDYTLTISSLQPEDFATYYCQQYWSTPFTFGQGTKLEIKR",binds
